PubChem BioAssay AID504786 – Drosophila RNAi Screening Center, 2011

Purpose: 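Positive regulators of HIF-driven reporter output in Drosophila cells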 (primary screen)
System: Drosophila S2 cells with a stable HIF luciferase reporter
Knock-down reagent: long dsRNA against Drosophila genes, about 0.2 µg dsRNA per well of a 384-well plate
Timing: three days of knock-down, then 20 h of DFO before reading
Treatment: desferrioxamine (DFO) at 100 µM, an iron chelator that mimics hypoxia, for 20 h
Read-out: 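Firefly luciferase driven by the mouse ldh-a hypoxia-response element, measured after 20 h of 100 µM DFO; z-scores per plate, higher means more signal lost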
Direction: z-score: higher = stronger loss of HIF reporter signal
In all, the deposit lists about 21,000 reagents; below is a random part of those that have a named target and a result. 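Primary screen; positive scores mean lost reporter signal, so the sign may be inverted from the usual convention.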 Reagents against one gene are numbered here.

gene knocked down | reagent | z-score, replicate 1 | z-score, replicate 2 | z-score, replicate 3 | z-score, replicate 4
CG6136 | 1 | -0.1 | 0.1 | – | –
Hmt4-20 (Histone methyltransferase 4-20) | 1 | 4.6 | 3.9 | – | –
Xpc (Xeroderma pigmentosum, complementation group C) | 1 | -0.2 | 0 | – | –
IntS9 (Integrator 9) | 1 | -0.3 | -0.6 | – | –
l(3)72Dp (lethal (3) 72Dp) | 1 | -0.3 | -0.3 | – | –
Saysd1 (SAYSVFN motif domain containing 1) | 1 | -0.3 | -0.5 | – | –
Acp53C14b (Accessory gland protein 53C14b) | 1 | 0 | -0.3 | – | –
scw (screw) | 1 | -0.1 | 0 | – | –
scw (screw) | 2 | -0.2 | 0.3 | – | –
Pc (Polycomb) | 1 | -0.4 | 0.1 | – | –
Mst89B | 1 | -0.3 | -0.5 | – | –
Dfd (Deformed) | 1 | -0.2 | -0.3 | – | –
CG13319 | 1 | 0.2 | -0.1 | – | –
Cyp305a1 (Cytochrome P450 305a1) | 1 | -0.3 | -0.4 | – | –
CG8209 | 1 | -0.4 | -0.1 | – | –
CG4676 | 1 | 0.2 | -0.1 | – | –
CG4053 | 1 | -0.2 | -0.2 | – | –
TwdlD (TweedleD) | 1 | -0.2 | 0.2 | – | –
CG17985 | 1 | -0.3 | -0.3 | – | –
CG32027 (retired record) | 1 | 0 | 0.2 | – | –
ATPsynF (ATP synthase, subunit F) | 1 | -0.1 | 0.2 | – | –
Osi22 (Osiris 22) | 1 | -0.4 | -0.5 | – | –
unc-4 | 1 | -0.3 | -0.4 | -0.8 | -0.3
CG13795 | 1 | -0.2 | -0.1 | – | –
CG1440 | 1 | -0.2 | -0.6 | – | –
Obp19d (Odorant-binding protein 19d) | 1 | -0.3 | 0 | – | –
CG15130 | 1 | -0.3 | -0.9 | – | –
CG6191 | 1 | -0.3 | -0.8 | – | –
CG31871 | 1 | 0 | 0.1 | – | –
CG31871 | 2 | 0.1 | 0.5 | – | –
Gr5a (Gustatory receptor 5a) | 1 | -0.2 | -0.1 | – | –
Mtr4 (Mtr4 helicase) | 1 | 2.3 | 3.6 | – | –
CG7912 | 1 | -0.4 | -0.2 | – | –
CG13148 | 1 | -0.1 | -0.1 | – | –
CG3841 | 1 | -0.1 | -0.1 | – | –
nord | 1 | -0.2 | -0.2 | – | –
nord | 2 | 0.3 | 0.3 | – | –
Cyp6d4 (Cytochrome P450 6d4) | 1 | -0.2 | 0 | – | –
Mov10 (Mov10 RISC complex RNA helicase) | 1 | -0.3 | -0.1 | – | –
Crtc (CREB-regulated transcription coactivator) | 1 | 4.1 | 0.3 | – | –
Hcf (Host cell factor) | 1 | -0.2 | -0.8 | – | –
ck (crinkled) | 1 | -0.3 | -0.5 | – | –
cdi (center divider) | 1 | -0.2 | -0.2 | – | –
lz (lozenge) | 1 | -0.3 | -0.9 | 0.2 | 0.1
atms (antimeros) | 1 | 3.8 | 2.4 | – | –
HP1c (Heterochromatin Protein 1c) | 1 | -0.3 | -0.7 | -0.4 | -0.4
CG7294 | 1 | -0.3 | -0.4 | – | –
shrb (shrub) | 1 | 3.4 | 2.9 | – | –
unc-119 | 1 | -0.3 | -0.6 | – | –
Sec61gamma (Sec61 gamma subunit) | 1 | 2.4 | 1.8 | – | –
CG8993 | 1 | -0.1 | -0.2 | – | –
TyrR (Tyramine receptor) | 1 | 0.4 | 0.8 | – | –
Daxx (Daxx-like protein) | 1 | -0.1 | -0.2 | – | –
Uch (Ubiquitin carboxy-terminal hydrolase) | 1 | -0.3 | -0.4 | – | –
pit (pitchoune) | 1 | 0 | -0.4 | – | –
Pif1 (Pif1 DNA helicase) | 1 | -0.4 | -0.3 | – | –
CstF50 (Cleavage stimulation factor 50 kD subunit) | 1 | -0.3 | -0.3 | – | –
CG1416 | 1 | 0.3 | 1.8 | – | –
CG15725 | 1 | -0.2 | -0.6 | – | –
sand (sandman) | 1 | -0.3 | -0.3 | – | –
CG33143 | 1 | -0.4 | -0.7 | – | –
CG33143 | 2 | -0.1 | 0 | – | –
Tg (Transglutaminase) | 1 | -0.4 | -0.5 | – | –
CG12783 | 1 | -0.2 | -0.1 | – | –
CG13036 (retired record) | 1 | -0.2 | -0.5 | – | –
Rcd2 (Reduction in Cnn dots 2) | 1 | -0.3 | 0.1 | – | –
CG4511 | 1 | -0.3 | -0.2 | – | –
CG13590 | 1 | -0.1 | -0.3 | – | –
Tim13 | 1 | -0.3 | -0.5 | – | –
GlnRS (Glutaminyl-tRNA synthetase) | 1 | 0.5 | 1.4 | – | –
CG8562 | 1 | -0.1 | -0.2 | – | –
CG3735 | 1 | -0.2 | 0.9 | – | –
Spf30 (Splicing factor 30) | 1 | 0 | -0.5 | – | –
Reg-5 (Rhythmically expressed gene 5) | 1 | -0.2 | 0 | – | –
yata | 1 | -0.3 | 0.1 | – | –
mRpL46 (mitochondrial ribosomal protein L46) | 1 | 0.5 | 0.9 | – | –
SIDL (Shal Interactor of Di-Leucine Motif) | 1 | -0.4 | -0.7 | – | –
Nup43 (Nucleoporin 43kD) | 1 | -0.6 | 0.1 | – | –
Cad88C (Cadherin 88C) | 1 | -0.3 | 0.1 | – | –
Pdp (Pyruvate dehydrogenase phosphatase) | 1 | -0.4 | -0.6 | – | –
mRpS7 (mitochondrial ribosomal protein S7) | 1 | 1 | 0.5 | – | –
ph-d (polyhomeotic distal) | 1 | 4 | 0.9 | – | –
CG15040 | 1 | -1.3 | -0.3 | – | –
